Test results reported in patent publication US20200308240A1, “Targeting Innate Immune Signaling in Neuroinflammation and Neurodegeneration” (The General Hospital Corporation, priority 2016, published 2020).
At least one compound was matched to its structure with a doubt left.

System: neuronal differentiated ReNcell VM cells
Test: dsRNA mimetic (PolyIC)-induced neurodegeneration in differentiated ReNVM neurons, cell viability by Celltiter-Glo
Assay type: cell-based
Settings: differentiated ReNVM human neurons transfected with PolyIC; FIGS. 4B-N
Procedure: FIGS. 3A-G. dsRNA induces a Type I interferon response and is sufficient to induced neurodegeneration in human neurons. A-E) Representative transmitted light images of differentiated ReNVM neurons transfected with increasing doses of PolyIC, a dsRNA mimetic, showing a dose-dependent loss of neurons after 48 hours. […] G) Western blots showing the elevated protein expression of type I interferon-stimulated genes in differentiated ReNVM cells 24 hour post transfection with PolyIC, using indicated antibodies.
FIGS. 4A-N. Inhibitors of key type I interferon regulators rescues PolyIC induced neurodegeneration in ReNVM cells.
Building on those findings, a novel in vitro human neuronal culture system was developed to recapitulate this pathophysiologic process. These cells can be used, e.g., to identify compounds that modulate dsRNA-mediated neurodegeneration, as a methodology for screening and validation of hits for the novel targets and related targets on the pathway for neurodegeneration and Alzheimer's disease pathogenesis as well as for purposes of drug screening and validation with the primary outcome being loss of neurons. Briefly, a dsRNA-mimetic was introduced into a human neural progenitor immortalized cell line, ReN VM cells, in vitro. […]

Nc1nc(F)nc2c1ncn2[C@@H]1O[C@H](CO)[C@@H](O)[C@@H]1O [NK-9, fludarabine]
rescue of PolyIC (dsRNA)-induced neurodegeneration / neuronal death: dose-dependent rescue of dsRNA-mediated neurodegeneration
